The list shows a part of the results. Small differences around the control level are noise.

By UniProt entry, the sequences of proteins in these tests, tags left out. Where a name states a change or a piece, a line headed by the entry shows the natural chain unless it says otherwise.
UniProt Q9H147: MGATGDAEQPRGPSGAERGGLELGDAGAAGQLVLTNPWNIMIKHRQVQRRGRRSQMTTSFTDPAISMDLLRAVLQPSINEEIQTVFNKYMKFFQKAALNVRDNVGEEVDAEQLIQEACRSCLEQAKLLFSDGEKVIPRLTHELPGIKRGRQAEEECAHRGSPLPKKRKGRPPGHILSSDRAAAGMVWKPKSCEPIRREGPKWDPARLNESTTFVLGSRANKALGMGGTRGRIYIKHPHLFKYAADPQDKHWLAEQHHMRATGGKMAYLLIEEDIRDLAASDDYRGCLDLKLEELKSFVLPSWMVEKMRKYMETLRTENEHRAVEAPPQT
UniProt Q9C0B5: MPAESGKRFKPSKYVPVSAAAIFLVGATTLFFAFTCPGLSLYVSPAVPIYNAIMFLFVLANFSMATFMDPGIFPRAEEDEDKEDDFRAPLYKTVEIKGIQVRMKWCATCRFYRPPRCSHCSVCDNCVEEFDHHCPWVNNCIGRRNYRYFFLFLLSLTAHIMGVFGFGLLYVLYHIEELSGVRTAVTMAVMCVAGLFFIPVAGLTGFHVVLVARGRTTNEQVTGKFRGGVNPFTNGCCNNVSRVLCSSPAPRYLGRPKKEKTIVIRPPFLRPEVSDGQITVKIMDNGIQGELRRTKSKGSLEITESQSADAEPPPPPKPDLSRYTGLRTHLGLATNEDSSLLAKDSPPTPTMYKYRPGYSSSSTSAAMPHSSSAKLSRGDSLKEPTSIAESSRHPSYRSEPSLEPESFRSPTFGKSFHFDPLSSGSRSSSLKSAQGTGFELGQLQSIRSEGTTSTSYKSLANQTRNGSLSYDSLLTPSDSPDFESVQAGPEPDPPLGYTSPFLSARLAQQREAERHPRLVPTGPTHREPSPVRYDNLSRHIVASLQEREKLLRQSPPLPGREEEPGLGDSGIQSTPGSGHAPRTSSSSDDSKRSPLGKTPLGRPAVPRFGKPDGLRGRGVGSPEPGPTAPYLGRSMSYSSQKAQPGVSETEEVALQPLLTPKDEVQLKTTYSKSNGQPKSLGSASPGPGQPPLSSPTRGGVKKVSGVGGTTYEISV
UniProt Q9BWD1: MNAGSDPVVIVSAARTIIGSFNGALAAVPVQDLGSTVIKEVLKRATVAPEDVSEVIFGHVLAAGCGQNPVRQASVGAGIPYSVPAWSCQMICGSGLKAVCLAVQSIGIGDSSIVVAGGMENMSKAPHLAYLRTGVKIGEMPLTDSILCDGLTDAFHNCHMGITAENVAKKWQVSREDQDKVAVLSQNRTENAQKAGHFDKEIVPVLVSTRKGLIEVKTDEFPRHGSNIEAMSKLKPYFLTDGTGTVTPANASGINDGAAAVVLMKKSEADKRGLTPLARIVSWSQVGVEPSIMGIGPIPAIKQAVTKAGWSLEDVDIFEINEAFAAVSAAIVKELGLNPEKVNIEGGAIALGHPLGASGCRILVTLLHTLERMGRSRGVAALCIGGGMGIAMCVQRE
UniProt Q9BUQ8: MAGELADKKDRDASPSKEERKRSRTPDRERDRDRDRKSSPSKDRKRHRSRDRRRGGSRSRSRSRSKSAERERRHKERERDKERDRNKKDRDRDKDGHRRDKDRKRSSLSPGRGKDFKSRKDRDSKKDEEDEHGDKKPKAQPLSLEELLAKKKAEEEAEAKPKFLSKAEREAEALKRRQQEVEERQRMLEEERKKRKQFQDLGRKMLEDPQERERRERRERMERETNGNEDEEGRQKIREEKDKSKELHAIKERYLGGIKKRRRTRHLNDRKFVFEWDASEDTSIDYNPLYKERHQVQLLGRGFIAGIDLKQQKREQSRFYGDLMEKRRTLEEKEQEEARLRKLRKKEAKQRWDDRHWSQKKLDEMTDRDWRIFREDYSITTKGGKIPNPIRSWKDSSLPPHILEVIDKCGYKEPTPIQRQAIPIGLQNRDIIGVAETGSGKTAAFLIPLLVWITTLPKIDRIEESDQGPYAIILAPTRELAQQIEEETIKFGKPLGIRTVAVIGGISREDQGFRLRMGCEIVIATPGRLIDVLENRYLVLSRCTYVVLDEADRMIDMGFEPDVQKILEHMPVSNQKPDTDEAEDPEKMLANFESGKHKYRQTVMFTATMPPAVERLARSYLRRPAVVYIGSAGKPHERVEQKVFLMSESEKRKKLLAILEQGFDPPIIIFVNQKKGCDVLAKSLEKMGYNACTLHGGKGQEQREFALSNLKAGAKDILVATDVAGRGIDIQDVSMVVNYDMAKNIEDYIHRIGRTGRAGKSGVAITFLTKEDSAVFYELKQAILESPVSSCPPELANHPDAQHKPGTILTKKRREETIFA
UniProt Q9BVG8: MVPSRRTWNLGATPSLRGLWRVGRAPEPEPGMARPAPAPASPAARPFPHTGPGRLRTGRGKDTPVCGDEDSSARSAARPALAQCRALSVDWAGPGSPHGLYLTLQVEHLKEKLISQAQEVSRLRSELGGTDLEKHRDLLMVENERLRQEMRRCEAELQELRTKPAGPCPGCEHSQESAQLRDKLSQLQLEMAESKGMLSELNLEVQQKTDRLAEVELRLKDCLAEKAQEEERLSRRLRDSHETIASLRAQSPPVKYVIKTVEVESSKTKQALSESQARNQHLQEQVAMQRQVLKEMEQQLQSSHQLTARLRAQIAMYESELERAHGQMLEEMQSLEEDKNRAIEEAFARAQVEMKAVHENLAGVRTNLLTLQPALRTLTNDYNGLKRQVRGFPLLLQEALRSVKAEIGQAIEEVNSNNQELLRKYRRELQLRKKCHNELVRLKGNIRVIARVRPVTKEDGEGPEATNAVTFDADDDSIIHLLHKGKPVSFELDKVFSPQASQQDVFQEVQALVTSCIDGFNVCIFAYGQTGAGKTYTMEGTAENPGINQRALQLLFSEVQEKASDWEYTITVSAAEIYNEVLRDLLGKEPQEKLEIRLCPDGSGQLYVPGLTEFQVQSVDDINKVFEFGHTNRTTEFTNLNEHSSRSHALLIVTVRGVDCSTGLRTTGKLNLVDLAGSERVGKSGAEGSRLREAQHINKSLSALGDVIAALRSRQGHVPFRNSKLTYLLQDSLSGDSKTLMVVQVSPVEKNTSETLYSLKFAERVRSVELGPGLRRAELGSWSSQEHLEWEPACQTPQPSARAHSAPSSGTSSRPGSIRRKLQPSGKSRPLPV
UniProt Q9BVL2: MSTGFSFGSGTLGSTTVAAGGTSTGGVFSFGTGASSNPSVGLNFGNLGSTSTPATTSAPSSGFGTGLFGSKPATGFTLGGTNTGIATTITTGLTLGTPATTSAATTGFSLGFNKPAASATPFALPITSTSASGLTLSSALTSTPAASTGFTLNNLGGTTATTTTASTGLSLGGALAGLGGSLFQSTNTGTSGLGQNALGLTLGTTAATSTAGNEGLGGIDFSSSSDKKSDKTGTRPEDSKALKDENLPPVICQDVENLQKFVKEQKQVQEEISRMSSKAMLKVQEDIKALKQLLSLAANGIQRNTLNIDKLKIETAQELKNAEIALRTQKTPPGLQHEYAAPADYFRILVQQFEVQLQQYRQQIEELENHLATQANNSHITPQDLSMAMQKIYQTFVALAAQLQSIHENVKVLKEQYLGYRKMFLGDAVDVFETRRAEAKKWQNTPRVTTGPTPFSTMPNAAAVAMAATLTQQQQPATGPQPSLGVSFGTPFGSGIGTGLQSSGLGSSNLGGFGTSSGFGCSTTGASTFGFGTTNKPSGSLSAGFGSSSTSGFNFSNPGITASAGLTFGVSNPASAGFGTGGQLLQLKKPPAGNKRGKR
UniProt Q9BX68: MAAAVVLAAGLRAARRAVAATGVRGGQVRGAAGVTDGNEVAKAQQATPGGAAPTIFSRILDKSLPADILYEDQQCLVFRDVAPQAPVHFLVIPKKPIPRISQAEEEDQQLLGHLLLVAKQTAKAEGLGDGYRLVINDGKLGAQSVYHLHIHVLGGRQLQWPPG
UniProt Q9C0I1: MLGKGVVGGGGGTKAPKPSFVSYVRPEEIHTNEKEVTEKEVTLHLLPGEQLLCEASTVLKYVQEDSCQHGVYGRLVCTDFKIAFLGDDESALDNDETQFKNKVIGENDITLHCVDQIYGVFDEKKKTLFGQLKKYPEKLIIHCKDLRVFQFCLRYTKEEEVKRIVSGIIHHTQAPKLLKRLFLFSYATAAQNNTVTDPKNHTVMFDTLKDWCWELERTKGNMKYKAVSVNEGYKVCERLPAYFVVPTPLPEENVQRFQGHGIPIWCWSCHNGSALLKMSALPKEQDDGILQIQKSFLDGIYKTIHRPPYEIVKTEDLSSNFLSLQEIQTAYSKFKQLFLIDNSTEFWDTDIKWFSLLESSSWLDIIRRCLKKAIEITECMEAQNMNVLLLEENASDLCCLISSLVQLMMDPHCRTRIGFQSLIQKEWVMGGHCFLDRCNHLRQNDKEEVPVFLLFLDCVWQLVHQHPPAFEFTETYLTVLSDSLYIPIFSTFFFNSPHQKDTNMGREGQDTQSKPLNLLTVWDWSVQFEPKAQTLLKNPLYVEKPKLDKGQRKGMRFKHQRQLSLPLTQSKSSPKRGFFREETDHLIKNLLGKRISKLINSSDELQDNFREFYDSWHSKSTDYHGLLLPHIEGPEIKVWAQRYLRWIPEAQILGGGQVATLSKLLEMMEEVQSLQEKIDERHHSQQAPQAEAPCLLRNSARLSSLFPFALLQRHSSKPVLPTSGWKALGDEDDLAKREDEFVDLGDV
UniProt Q9BZ95: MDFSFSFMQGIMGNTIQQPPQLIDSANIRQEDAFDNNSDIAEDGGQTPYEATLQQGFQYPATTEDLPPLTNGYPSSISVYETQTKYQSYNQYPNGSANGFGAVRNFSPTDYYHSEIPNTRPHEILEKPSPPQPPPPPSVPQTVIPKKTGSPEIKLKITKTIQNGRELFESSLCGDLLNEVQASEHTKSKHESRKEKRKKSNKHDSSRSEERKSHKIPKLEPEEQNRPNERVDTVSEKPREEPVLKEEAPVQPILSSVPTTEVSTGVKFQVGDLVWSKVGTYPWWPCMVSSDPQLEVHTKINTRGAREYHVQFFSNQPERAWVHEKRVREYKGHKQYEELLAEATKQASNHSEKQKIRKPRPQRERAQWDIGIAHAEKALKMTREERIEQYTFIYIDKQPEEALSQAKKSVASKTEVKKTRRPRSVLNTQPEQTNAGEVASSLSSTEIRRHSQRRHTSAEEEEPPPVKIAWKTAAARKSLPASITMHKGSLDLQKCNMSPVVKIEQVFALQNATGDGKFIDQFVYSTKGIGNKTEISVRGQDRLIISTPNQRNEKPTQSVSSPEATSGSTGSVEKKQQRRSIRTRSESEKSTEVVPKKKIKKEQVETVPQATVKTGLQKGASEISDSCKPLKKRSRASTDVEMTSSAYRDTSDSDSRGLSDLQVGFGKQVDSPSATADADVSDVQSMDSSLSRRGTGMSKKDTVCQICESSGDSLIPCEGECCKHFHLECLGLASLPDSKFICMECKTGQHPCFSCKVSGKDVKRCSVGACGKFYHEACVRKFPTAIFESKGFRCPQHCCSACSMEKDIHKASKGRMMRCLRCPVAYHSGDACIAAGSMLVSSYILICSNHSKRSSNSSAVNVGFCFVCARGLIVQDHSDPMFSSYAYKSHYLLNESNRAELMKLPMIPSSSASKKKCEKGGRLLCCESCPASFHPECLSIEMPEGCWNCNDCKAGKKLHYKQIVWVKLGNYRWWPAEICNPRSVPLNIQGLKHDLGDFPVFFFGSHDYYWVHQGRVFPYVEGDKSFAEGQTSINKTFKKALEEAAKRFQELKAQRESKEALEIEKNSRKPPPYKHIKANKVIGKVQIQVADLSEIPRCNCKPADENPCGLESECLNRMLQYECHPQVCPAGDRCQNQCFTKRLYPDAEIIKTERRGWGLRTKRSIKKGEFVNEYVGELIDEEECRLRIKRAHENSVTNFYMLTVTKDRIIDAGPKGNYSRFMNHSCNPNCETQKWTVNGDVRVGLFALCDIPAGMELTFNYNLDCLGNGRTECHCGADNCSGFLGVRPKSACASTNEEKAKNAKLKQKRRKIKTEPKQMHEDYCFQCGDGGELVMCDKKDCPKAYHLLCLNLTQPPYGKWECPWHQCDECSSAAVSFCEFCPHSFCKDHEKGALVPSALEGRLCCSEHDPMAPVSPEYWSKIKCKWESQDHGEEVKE
UniProt Q9H0N5: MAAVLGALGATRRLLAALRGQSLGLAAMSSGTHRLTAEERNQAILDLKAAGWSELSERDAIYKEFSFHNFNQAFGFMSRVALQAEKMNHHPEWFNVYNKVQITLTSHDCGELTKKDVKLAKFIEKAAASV

Compound in the assay: Cc1nc(Nc2ncc(C(=O)Nc3c(C)cccc3Cl)s2)cc(N2CCN(CCO)CC2)n1 [dasatinib]
Description: log2 fold change of tryptic peptide abundance, ligand vs vehicle (limited proteolysis) (log2 ratio); higher = more trypsin-susceptible (destabilized). The note with it: ligand concentration: 5 uM; sample: K562 cleared lysate.
On to “DNTTIP1 (peptide sequence: AAAGMVWKPK, peptide start residue: 181) (UniProt Q9H147)”, for which the log2 fold change was -0.5.

Take “ZDHHC5 (peptide sequence: SEPSLEPESFR, peptide start residue: 398) (UniProt Q9C0B5)”: the log2 fold change is -0.249.

On to “ACAT2 (peptide sequence: ILVTLLHTLER, peptide start residue: 362) (UniProt Q9BWD1)”, for which the log2 fold change was -0.1.

Regarding “TRMT61B (peptide sequence: KDHHDLAKK, peptide start residue: 281) (UniProt Q9BVS5)”, the log2 fold change amounted to 0.0616.

For the target “DDX23 (peptide sequence: HQVQLLGR, peptide start residue: 294) (UniProt Q9BUQ8)”, the log2 fold change was found to be 0.104.

“KIFC3 (peptide sequence: AHGQMLEEMQSLEEDKNR, peptide start residue: 324) (UniProt Q9BVG8)”: the log2 fold change turned out to be 0.62.

With “UniProt Q9BVL2 (peptide sequence: KMFLGDAVDVFETR, peptide start residue: 422)”, the log2 fold change is -0.0855.

“HINT2 (peptide sequence: AEGLGDGYR, peptide start residue: 124) (UniProt Q9BX68)”: the log2 fold change amounted to 0.193.

In the case of “UniProt Q9C0I1 (peptide sequence: STDYHGLLLPHIEGPEIK, peptide start residue: 620)”, the log2 fold change is -0.704.

Regarding “NSD3 (peptide sequence: QYEELLAEATK, peptide start residue: 335) (UniProt Q9BZ95)”, the log2 fold change is 0.454.

For the target “PCBD2 (peptide sequence: VQITLTSHDCGELTKK, peptide start residue: 100) (UniProt Q9H0N5)”, the log2 fold change is -0.377.

Source of the values: the supplement of paper PMC12819154, “High-throughput peptide-centric local stability assay extends protein–ligand identification to membrane proteins, tissues and bacteria” (Nature Structural & Molecular Biology, 2025).
